No constants are given. Whether binding was seen depends on the method and setting. Some entries that bind do so weakly or less than the wild type.
Key:
[1] = biological target: T1, human endoglin (CD105) (human) (UniProt P17813); assay: immunohistochemistry, reactivity grade (0, +, ++, +++), stomach tumor, 2 specimens
T1 sequence (looked up): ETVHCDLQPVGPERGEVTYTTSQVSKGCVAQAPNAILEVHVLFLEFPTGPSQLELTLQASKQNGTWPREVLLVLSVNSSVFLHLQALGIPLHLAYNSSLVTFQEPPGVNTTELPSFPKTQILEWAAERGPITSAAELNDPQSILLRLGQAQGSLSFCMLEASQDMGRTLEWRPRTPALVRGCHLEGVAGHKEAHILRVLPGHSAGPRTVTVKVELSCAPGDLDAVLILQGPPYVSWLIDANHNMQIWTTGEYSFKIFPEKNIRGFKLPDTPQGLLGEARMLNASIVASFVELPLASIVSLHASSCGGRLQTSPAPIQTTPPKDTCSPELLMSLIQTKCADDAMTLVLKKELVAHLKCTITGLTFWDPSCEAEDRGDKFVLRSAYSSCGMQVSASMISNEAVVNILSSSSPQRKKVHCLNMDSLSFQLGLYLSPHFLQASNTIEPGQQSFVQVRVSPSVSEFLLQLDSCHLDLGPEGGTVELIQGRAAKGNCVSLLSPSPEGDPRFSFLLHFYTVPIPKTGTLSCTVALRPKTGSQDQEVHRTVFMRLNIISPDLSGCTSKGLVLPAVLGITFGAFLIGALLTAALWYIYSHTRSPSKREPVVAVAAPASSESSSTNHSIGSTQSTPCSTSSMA

[2] = biological target: T1, human endoglin (CD105) (human); assay: immunohistochemistry, reactivity grade (0, +, ++, +++), liver tumor, 1 specimen
[3] = biological target: T1, human endoglin (CD105) (human); assay: immunohistochemistry, reactivity grade (0, +, ++, +++), rectum tumor, 2 specimens
[4] = biological target: T1, human endoglin (CD105) (human); assay: immunohistochemistry, reactivity grade (0, +, ++, +++), bone tumor, 1 specimen
[5] = biological target: T1, human endoglin (CD105) (human); assay: immunohistochemistry, reactivity grade (0, +, ++, +++), bladder tumor, 2 specimens
[6] = biological target: T1, human endoglin (CD105) (human); assay: immunohistochemistry, reactivity grade (0, +, ++, +++), lymphoma, 7 specimens
[7] = biological target: T1, human endoglin (CD105) (human); assay: immunohistochemistry, reactivity grade (0, +, ++, +++), pancreas tumor, 1 specimen
[8] = biological target: T1, human endoglin (CD105) (human); assay: immunohistochemistry, reactivity grade (0, +, ++, +++), breast tumor, 21 specimens
[9] = biological target: T1, human endoglin (CD105) (human); assay: immunohistochemistry, reactivity grade (0, +, ++, +++), colon tumor, 4 specimens
[10] = biological target: T1, human endoglin (CD105) (human); assay: immunohistochemistry, reactivity grade (0, +, ++, +++), thyroid tumor, 3 specimens
[11] = biological target: T1, human endoglin (CD105) (human); assay: immunohistochemistry, reactivity grade (0, +, ++, +++), ovary tumor, 2 specimens
[12] = biological target: T1, human endoglin (CD105) (human); assay: immunohistochemistry, reactivity grade (0, +, ++, +++), penis tumor, 1 specimen
[13] = biological target: T1, human endoglin (CD105) (human); assay: immunohistochemistry, reactivity grade (0, +, ++, +++), esophagus tumor, 1 specimen
[14] = biological target: T1, human endoglin (CD105) (human); assay: immunohistochemistry on frozen, acetone-fixed human carcinoma samples, 10,000-fold dilution of ascites
[15] = biological target: T1, human endoglin (CD105) (human); assay: immunohistochemistry, reactivity grade (0, +, ++, +++), lung tumor, 3 specimens

Measured: binding

B1: anti-endoglin antibody SN6j (antibody, V domains shown)
VH: EVKLEESGGGLVQPGGSMKLSCAASGFTFSDAWMDWVRQSPEKGLEWVAEIRSKASNHATYYAESVKGRFTISRDDSKSSVYLQMNSLRAEDTGIYYCTRWRRFFDSWGQGTTLTVSS
VL: QIVLSQSPAILSASPGEKVTMTCRASSSVSYMHWYQQKPGSSPKPWIYATSNLASGVPVRFSGSGSGTSYSLTISRVEAEDAATYYCQQWSSNPLTFGAGTKLELK
binds: all assays above

Reference: patent US20180057602A1
